Experimental findings from article PMC11875811 are described below.

Sequences of proteins named here, by UniProt entry; tags and fusion partners are left off. A change or cut given only in a name is not applied to a line headed by its entry.
UniProt P42224: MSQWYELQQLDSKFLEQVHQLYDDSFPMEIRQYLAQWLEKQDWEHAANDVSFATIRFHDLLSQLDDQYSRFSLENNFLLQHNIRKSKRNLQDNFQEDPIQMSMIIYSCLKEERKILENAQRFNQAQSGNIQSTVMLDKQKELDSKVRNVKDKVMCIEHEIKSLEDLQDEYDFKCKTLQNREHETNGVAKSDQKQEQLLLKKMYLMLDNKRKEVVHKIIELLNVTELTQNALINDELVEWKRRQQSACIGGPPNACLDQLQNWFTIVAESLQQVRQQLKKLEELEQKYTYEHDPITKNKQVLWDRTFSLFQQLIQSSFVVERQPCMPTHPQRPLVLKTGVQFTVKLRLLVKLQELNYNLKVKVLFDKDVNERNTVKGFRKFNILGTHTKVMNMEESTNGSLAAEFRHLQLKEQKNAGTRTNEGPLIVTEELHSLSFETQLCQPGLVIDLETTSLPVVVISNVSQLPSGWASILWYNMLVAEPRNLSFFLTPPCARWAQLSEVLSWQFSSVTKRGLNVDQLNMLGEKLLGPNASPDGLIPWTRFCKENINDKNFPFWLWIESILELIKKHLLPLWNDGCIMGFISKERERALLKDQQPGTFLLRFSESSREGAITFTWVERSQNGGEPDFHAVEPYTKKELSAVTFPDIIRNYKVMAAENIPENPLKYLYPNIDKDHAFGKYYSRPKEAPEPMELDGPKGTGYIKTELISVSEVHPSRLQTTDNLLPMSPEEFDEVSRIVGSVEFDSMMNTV

Series [1] deals with STAT1 (recombinant) (human) (UniProt P42224). The series can be described thus: EMSA. The following applies: EMSA: 30 min incubation, FAM probe (amount printed as '10 p.m.'), native 5% PAGE in 0.5x TBE, recombinant protein, label: FAM. A general note: Mobility shift assays separate free from complexed probe on a gel.
The target in a further series is FLAG-STAT1 (UniProt P42224). Put plainly: pull-down. The following applies: pull-down: 0.1% NP40 buffer, 1 uM biotin dsDNA, streptavidin beads 2 h at 4 C, salt and pH not stated, protein in a lysate after overexpression, protein details: FLAG, label: 5' biotin.

For at least one entry, the source does not settle the construct or the ends of the probe. Weaker means in comparison with the reference protein, sequence or condition of that experiment. For some of these results: Where cells or extracts were used, other partners may take part. At least one verdict was read from the data and is not stated in words by the source.

Regarding “GCCTGATTTCCCCGAAATGACGGCAC (double strand) [IRF1 promoter probe (EMSA)]”, the values for the binding result in series [1] (STAT1 pretreated with 25 uM sulforaphane) and in series [1] (no SFN) were “binds more weakly” and “binds”, respectively.

Regarding “TTCCCCGAATTCCCCGAA (double strand) [2xGAS probe (pull-down)]”, the binding result with FLAG-STAT1 (cells pretreated with 25 uM sulforaphane, then IFN-g) is recorded as “binds more weakly”; in the series with FLAG-STAT1 (cells treated with IFN-g 200 ng/mL, no SFN) it was “binds”.
